Where a name gives a salt, the structure may show the parent alone. The list shows a part of the results. The calls rarely recur for the same compound in another form.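 In K562 cells expressing nanoluciferase-fused kinases, luminescence was recorded at 4 h intervals between 2 and 18 h, normalized as percent of control with DMSO at 100% and a positive control at 0%. A significant (2 sigma) signal drop marks a time point as decreased. The authors' rule for a hit is not shown and takes in more than the number of time points.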
Experiments:
Assay in all cases: number of time points (of 5) at which kinase-Nluc abundance scored as decreased, DMSO-normalised (count); higher = more persistent destabilization
Settings in all cases: K562; 2-18 h
CSNK1A1 = CSNK1A1 (UniProt P48729)
CSNK1D = CSNK1D (UniProt P48730)
DDR1 = DDR1 (UniProt Q08345)
DYRK1B = DYRK1B (UniProt Q9Y463)
DYRK2 = DYRK2 (UniProt Q92630)
EGFR = EGFR (UniProt P00533)
EGFR_G719S = EGFR_G719S (UniProt P00533)
EGFR_G719S_T790M = EGFR_G719S_T790M (UniProt P00533)
EGFR_L718V = EGFR_L718V (UniProt P00533)
EGFR_L858R = EGFR_L858R (UniProt P00533)

Amino acid sequences for entries named in this document (tags omitted). A change or cut given only in a name is not applied to a line headed by its entry.
UniProt P48729: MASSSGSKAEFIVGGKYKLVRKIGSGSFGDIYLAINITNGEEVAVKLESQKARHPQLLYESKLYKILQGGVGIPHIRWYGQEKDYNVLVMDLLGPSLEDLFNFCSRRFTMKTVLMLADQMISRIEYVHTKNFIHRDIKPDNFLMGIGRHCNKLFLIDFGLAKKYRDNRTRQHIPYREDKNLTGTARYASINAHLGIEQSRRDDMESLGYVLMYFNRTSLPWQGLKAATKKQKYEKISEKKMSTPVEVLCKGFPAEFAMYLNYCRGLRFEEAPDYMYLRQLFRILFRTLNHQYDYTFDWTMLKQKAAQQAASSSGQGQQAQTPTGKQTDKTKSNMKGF
UniProt P48730: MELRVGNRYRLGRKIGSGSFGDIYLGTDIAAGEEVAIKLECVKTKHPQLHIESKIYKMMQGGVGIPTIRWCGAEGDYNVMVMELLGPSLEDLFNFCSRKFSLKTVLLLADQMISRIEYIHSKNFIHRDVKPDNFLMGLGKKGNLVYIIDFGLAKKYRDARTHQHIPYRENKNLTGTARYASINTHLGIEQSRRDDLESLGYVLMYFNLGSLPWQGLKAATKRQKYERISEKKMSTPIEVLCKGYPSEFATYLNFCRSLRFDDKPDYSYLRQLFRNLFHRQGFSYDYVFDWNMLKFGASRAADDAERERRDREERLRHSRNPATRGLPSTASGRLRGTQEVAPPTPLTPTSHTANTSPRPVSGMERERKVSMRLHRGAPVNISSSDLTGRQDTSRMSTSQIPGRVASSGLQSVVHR
UniProt Q08345: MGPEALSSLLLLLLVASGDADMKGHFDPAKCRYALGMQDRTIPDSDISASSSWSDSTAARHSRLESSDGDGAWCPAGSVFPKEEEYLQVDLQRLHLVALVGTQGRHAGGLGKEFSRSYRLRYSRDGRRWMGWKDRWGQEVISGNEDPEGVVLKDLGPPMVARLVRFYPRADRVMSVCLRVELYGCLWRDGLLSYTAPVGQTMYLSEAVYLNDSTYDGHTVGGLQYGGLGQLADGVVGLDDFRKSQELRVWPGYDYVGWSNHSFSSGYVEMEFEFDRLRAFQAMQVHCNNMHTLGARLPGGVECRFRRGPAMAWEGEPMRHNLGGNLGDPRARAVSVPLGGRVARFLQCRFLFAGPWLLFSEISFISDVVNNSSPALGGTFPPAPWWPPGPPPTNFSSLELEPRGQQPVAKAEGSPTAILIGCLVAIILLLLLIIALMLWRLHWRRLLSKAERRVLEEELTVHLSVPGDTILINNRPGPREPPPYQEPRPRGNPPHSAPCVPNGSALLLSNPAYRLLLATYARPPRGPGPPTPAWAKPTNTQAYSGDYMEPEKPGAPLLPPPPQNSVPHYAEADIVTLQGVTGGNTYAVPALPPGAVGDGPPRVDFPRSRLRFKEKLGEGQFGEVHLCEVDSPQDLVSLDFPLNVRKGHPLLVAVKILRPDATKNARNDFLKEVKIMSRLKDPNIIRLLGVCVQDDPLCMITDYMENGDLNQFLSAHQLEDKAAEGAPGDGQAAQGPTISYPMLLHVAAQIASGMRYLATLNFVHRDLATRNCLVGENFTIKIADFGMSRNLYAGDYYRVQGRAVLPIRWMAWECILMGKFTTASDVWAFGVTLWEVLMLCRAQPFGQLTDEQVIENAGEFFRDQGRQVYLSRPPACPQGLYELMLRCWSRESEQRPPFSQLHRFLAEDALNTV
UniProt Q9Y463, whole entry, looked up: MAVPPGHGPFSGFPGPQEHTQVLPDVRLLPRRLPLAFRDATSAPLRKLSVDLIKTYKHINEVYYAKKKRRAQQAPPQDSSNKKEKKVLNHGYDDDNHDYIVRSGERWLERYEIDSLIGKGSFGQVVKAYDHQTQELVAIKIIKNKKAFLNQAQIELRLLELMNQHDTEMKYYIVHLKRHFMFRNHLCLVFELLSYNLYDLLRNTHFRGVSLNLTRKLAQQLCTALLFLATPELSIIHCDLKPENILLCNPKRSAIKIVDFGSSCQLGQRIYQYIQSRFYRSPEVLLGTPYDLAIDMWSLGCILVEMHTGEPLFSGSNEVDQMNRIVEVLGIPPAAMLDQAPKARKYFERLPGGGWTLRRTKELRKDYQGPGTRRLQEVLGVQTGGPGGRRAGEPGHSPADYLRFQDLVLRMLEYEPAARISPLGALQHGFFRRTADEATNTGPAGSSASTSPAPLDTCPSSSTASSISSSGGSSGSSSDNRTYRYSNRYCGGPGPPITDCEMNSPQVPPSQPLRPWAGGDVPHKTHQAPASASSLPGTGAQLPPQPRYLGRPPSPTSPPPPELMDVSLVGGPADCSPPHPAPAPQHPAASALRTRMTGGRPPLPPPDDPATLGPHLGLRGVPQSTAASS
UniProt Q92630: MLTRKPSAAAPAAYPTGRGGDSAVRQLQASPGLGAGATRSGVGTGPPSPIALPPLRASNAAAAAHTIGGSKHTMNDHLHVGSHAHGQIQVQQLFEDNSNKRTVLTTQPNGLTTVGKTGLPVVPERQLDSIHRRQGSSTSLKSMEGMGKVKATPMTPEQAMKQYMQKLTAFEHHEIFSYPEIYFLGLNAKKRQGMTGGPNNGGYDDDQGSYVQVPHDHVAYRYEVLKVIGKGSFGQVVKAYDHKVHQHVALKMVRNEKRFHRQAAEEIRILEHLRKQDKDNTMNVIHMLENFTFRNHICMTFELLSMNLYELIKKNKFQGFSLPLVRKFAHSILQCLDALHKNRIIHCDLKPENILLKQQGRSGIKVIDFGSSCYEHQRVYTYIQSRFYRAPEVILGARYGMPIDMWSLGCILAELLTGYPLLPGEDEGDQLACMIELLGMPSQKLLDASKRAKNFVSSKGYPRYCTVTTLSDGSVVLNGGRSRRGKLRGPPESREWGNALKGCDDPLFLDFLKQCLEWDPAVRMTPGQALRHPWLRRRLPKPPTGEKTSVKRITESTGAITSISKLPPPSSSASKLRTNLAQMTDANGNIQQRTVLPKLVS

SMILES	number of time points (CSNK1A1)	number of time points (CSNK1D)	number of time points (DDR1)	number of time points (DYRK1B)	number of time points (DYRK2)	number of time points (EGFR)	number of time points (EGFR_G719S)	number of time points (EGFR_G719S_T790M)	number of time points (EGFR_L718V)	number of time points (EGFR_L858R)
O=C(NCCCNc1nc(Nc2cccc(NC(=O)N3CCCC3)c2)ncc1I)c1cccs1 (2.5 µM)	0	0	2	0	0	0	0	0	0	0
CNC(=O)c1ccc(-c2cnc3cnc(C(=O)N(C)c4ccc(Cl)cc4)cn23)cc1 (2.5 µM)	0	0	0	0	0	0	0	0	0	0
C[C@@H](c1ccc2nccn2c1)n1nnc2ncc(-c3cnn(C)c3)nc21 [Savolitinib] (10 µM)	0	0	0	0	0	0	0	0	0	0
N#Cc1ccc2ncnc(NC3CCC(N4CCOCC4)CC3)c2c1 (stereo not given) (10 µM)	0	0	0	0	0	0	0	0	0	0
N#Cc1c(-c2ccccc2)cc(-c2cc(Br)ccc2O)[nH]c1=O (10 µM)	0	0	0	0	0	0	0	0	0	0
Cc1cc(NC(=O)c2cccc(NC(=O)/C=C/CN(C)C)c2)ccc1Nc1nccc(-c2cccnc2)n1 (10 µM)	0	0	0	0	0	0	0	0	0	0
Cc1ccc(-c2c(C(=O)CCl)n(CCCO)c3ncnc(N)c23)cc1 (10 µM)	0	0	0	0	0	0	3	0	0	2
Cc1csc(-c2nnc(Nc3ccc(Oc4ncccc4-c4ccnc(N)n4)cc3)c3ccccc23)c1 (2.5 µM)	0	0	0	0	0	0	0	0	0	0
C/C(=C1/C(=O)Nc2ccc(NC(N)=O)cc21)c1ccc[nH]1 (10 µM)	0	0	3	0	2	0	0	0	0	0
Fc1ccc(-c2nc(-c3ccccc3F)[nH]c2-c2ccncc2)cc1 (2.5 µM)	0	0	0	0	0	0	0	0	0	0
Nc1ncnc2c1c(-c1ccc(Oc3ccccc3)cc1)nn2C1CCNCC1 [N-piperidine Ibrutinib (hydrochloride)] (10 µM)	0	0	1	0	3	0	0	0	0	0
Nc1cc(Nc2ccc(S(N)(=O)=O)cc2)ncn1 (10 µM)	0	0	0	0	0	0	0	0	0	0
Fc1ccc(-c2nc(-c3c(F)cccc3F)[nH]c2-c2ccncc2)cc1 (10 µM)	0	0	0	0	0	0	0	0	0	0
OC(COc1ccc(C(F)(F)F)cc1)CN(Cc1ccccc1)Cc1ccccc1 (stereo not given) (2.5 µM)	0	0	0	0	0	0	0	0	0	0
Cc1c(NC(=O)OC[C@@H]2COCCN2)cn2ncnc(Nc3ccc4c(cnn4Cc4cccc(F)c4)c3)c12 (10 µM)	0	0	0	0	0	0	0	0	0	0
CCn1c(C(=O)N(C2CC2)C2CC2)cc2c3c(ncn3C)c(Nc3cc(C)n(C)n3)nc21 (10 µM)	0	0	0	0	0	0	0	0	0	0
CC(C)CN(CC(=O)N1CCN(CC(OCc2ccc3ccccc3c2)c2ccc(Cl)cc2Cl)CC1)CC(C)C (stereo not given) [LYN-1604 (dihydrochloride)] (2.5 µM)	0	0	0	0	0	0	0	0	0	0
C=C1C(=O)O[C@@H]2C[C@@]3(C)CCC[C@H](C)C3=C[C@H]12 [Alantolactone] (10 µM)	0	0	4	0	0	0	0	0	0	0
O=C1NC(=O)C(=Cc2ccc(-c3ccc(F)cc3)o2)S1 (stereo in doubt) (10 µM)	0	0	0	0	0	0	0	0	0	0
c1cc2c(cc1O[C@H]1OC[C@H]3[C@@H]1CO[C@@H]3c1ccc3c(c1)OCO3)OCO2 [Sesamolin] (10 µM)	0	0	0	0	0	0	0	0	0	0
CO[C@H]1C[C@@H]2CC[C@@H](C)[C@@](O)(O2)C(=O)C(=O)N2CCCC[C@H]2C(=O)O[C@H]([C@H](C)C[C@@H]2CC[C@@H](O)[C@H](OC)C2)CC(=O)[C@H](C)/C=C(\C)[C@@H](O)[C@@H](OC)C(=O)[C@H](C)C[C@H](C)/C=C/C=C/C=C/1C [Rapamycin] (10 µM)	0	0	0	0	0	0	0	0	0	0
CCN1CCN(Cc2ccc(Nc3ncc(F)c(-c4cc(F)c5nc(CO)n(C(C)C)c5c4)n3)nc2)CC1 [Abemaciclib metabolite M20] (2 µM)	0	0	0	0	0	0	0	0	0	0
COc1ncc(-c2nc(N3CCOCC3)nc3c(CN4CCC(C(C)(C)O)CC4)cc(F)cc23)cc1NS(C)(=O)=O [Linperlisib] (10 µM)	0	0	0	0	0	0	0	0	0	0
COc1cc2ncnc(Nc3cccc(Cl)c3)c2cc1OC (10 µM)	0	0	0	0	0	0	0	0	0	0

SMILES	number of time points (CSNK1A1)	number of time points (CSNK1D)	number of time points (DDR1)	number of time points (DYRK1B)	number of time points (DYRK2)	number of time points (EGFR)	number of time points (EGFR_G719S)	number of time points (EGFR_G719S_T790M)	number of time points (EGFR_L718V)	number of time points (EGFR_L858R)
CN(CC(=O)N(Cc1ccc(C2CCCCC2)cc1)c1ccc(C(=O)O)cc1)S(=O)(=O)c1c(F)c(F)c(F)c(F)c1F (2.5 µM)	0	0	0	0	0	0	0	0	0	0
CC(c1ccc(-c2cnc3c(-c4ccc(S(N)(=O)=O)c5ccccc45)cnn3c2)cc1)N1CCCC1 (stereo not given) (2.5 µM)	0	0	0	0	0	0	0	0	0	0
COc1ccc(C(=C2C(=O)Nc3ccccc32)c2ccc(OC)cc2)cc1 (10 µM)	0	0	0	0	0	0	0	0	0	0
C[C@]1(O)CCC[C@@H]1n1c(=O)c(C(F)F)cc2cnc(NC3CCN(S(C)(=O)=O)CC3)nc21 (10 µM)	0	0	0	0	0	0	0	0	0	0
CCn1c(=O)c(-c2ccc(-c3cncc(C)n3)cc2Cl)cc2cnc(NCCC3CCN(C)CC3)nc21 (10 µM)	0	0	0	0	0	0	0	0	0	0
COc1ccc(C2CC(c3ccccc3)=NN2c2ccc(S(N)(=O)=O)cc2)cc1 (stereo not given) (10 µM)	0	0	0	0	0	0	0	0	0	0
CC(C)(C)NC(=O)c1cncn1C1CCN(c2ccc(-c3nnc(C(F)(F)F)o3)cn2)CC1 (10 µM)	0	0	0	0	0	0	0	0	0	0
CC1CN(C(=O)Nc2ccc(Cl)c(Cl)c2)C(=Nc2ccc(F)cc2)S1 (stereo not given) (10 µM)	0	0	0	0	0	0	0	0	0	0
COc1cc2ncn(-c3cc(OCc4ccccc4S(C)(=O)=O)c(C#N)s3)c2cc1OC (10 µM)	0	0	0	0	0	0	0	0	0	0
CC[C@@]1(c2ccccc2)C2=C(CC(C)(C)CC2=O)Nc2[nH]ncc21 (10 µM)	0	0	0	0	0	0	0	0	0	0
Cc1cc(Nc2cc(Cl)nc(Oc3ccc([N+](=O)[O-])cc3)n2)n[nH]1 [Autophinib] (2.5 µM)	0	0	0	0	0	0	2	0	0	0
OCCNC1CCCc2c1[nH]c1ccc(-c3ccccc3)cc21 (stereo not given) (2.5 µM)	0	0	1	1	2	0	1	0	0	0
O=C(O)CCc1ccc(O)c(O)c1 [Dihydrocaffeic acid] (10 µM)	0	0	0	0	0	0	0	0	0	0
COc1ccc([C@@H]2CC(=O)c3c(O)cc(O)cc3O2)cc1O [Hesperetin] (10 µM)	0	0	0	0	0	0	0	0	0	0
COc1cc2c[n+](C)c3c4cc5c(cc4ccc3c2cc1OC)OCO5 [Nitidine (chloride)] (2 µM)	0	0	0	0	0	0	0	0	0	0
Cc1c(CN2CCN(C(=O)[C@H](C)O)CC2)sc2c(N3CCOCC3)nc(-c3cnc(N)nc3)nc12 [Apitolisib] (10 µM)	3	0	3	0	3	2	2	0	0	0
COc1cc(S(C)(=O)=O)ccc1Nc1nc2ccc(-c3ccc(NC(=O)[C@H](C)c4ccc(F)cc4)cc3)cn2n1 [Empesertib] (10 µM)	0	0	0	0	0	0	0	0	0	0
NCCN1CCN(C/C=C/C(=O)N2CCC[C@@H](n3nc(-c4ccc(Oc5ccccc5)cc4)c4c(N)ncnc43)C2)CC1 [Ibrutinib-MPEA] (10 µM)	0	0	0	0	0	0	0	0	0	0
C=CC(=O)Nc1ccc(CN(C(=O)Nc2c(Cl)c(OC)cc(OC)c2Cl)c2cc(Nc3ccc(N4CCN(C)CC4)cc3)ncn2)cc1 (10 µM)	0	0	0	0	0	0	0	0	0	0
CC(=NNC(=O)c1ccc(C)c(Br)c1)c1ccc(O)cc1O [mTOR inhibitor-1] (2.5 µM)	0	0	0	0	2	0	0	0	0	0
Nc1nccc(Oc2ccc(NC(=O)c3cn(COP(=O)(O)O)cc(-c4ccc(F)cc4)c3=O)cc2F)c1Cl (10 µM)	0	0	1	0	1	0	0	2	0	1
Cc1ccc(NC(=S)NNc2c([N+](=O)[O-])cc(C(F)(F)F)cc2[N+](=O)[O-])cc1Cl (10 µM)	0	0	0	0	0	0	0	0	0	0
CCc1cc(O)c(F)cc1-c1ccc2c(-c3nc4c([nH]3)CN(C3CCN(C)CC3)CC4)n[nH]c2c1 [JAK-IN-5 (hydrochloride)] (2 µM)	1	0	4	0	4	0	1	0	0	2
Cc1ccc(Nc2cc(-c3cccc(N4C(=O)c5ccccc5C4=O)c3)ncn2)cc1NS(C)(=O)=O (10 µM)	0	0	0	1	1	0	0	0	0	0

Arranged by formula weight (low to high): some entries from above
SMILES	number of time points (CSNK1A1)	number of time points (CSNK1D)	number of time points (DDR1)	number of time points (DYRK1B)	number of time points (DYRK2)	number of time points (EGFR)	number of time points (EGFR_G719S)	number of time points (EGFR_G719S_T790M)	number of time points (EGFR_L718V)	number of time points (EGFR_L858R)
CC(C)(C)NC(=O)c1cncn1C1CCN(c2ccc(-c3nnc(C(F)(F)F)o3)cn2)CC1 (10 µM)	0	0	0	0	0	0	0	0	0	0
CC(c1ccc(-c2cnc3c(-c4ccc(S(N)(=O)=O)c5ccccc45)cnn3c2)cc1)N1CCCC1 (stereo not given) (2.5 µM)	0	0	0	0	0	0	0	0	0	0
Cc1ccc(Nc2cc(-c3cccc(N4C(=O)c5ccccc5C4=O)c3)ncn2)cc1NS(C)(=O)=O (10 µM)	0	0	0	1	1	0	0	0	0	0
